These are yes or no findings as the source states them, for the method shown.
Target: recombinant intra-melanosomal domain of human tyrosinase (Tyrtr) (human) (UniProt P14679)
Assay: SEC; Superdex 200 Increase 10/300, calibrated with Bio-Rad SEC standards; SEC buffer 50 mM Tris-HCl, pH 7.4, 1 mM EDTA, 150 mM NaCl, 50 µM TCEP; both purified

B1: recombinant intra-melanosomal domain of human tyrosinase (Tyrtr) (domain or fragment, UniProt P14679 19-469)
chain: HFPRACVSSKNLMEKECCPPWSGDRSPCGQLSGRGSCQNILLSNAPLGPQFPFTGVDDRESWPSVFYNRTCQCSGNFMGFNCGNCKFGFWGPNCTERRLLVRRNIFDLSAPEKDKFFAYLTLAKHTISSDYVIPIGTYGQMKNGSTPMFNDINIYDLFVWMHYYVSMDALLGGSEIWRDIDFAHEAPAFLPWHRLFLLRWEQEIQKLTGDENFTIPYWDWRDAEKCDICTDEYMGGQHPTNPNLLSPASFFSSWQIVCSRLEEYNSHQSLCNGTPEGPLRRNPGNHDKSRTPRLPSSADVEFCLSLTQYESGSMDKAANFSFRNTLEGFASPLTGIADASQSSMHNALHIYMNGTMSQVQGSANDPIFLLHHAFVDSIFEQWLRRHRPLQEVYPEANAPIGHNRESYMVPFIPLYRNGDFFISSKDLGYDYSYLQDSDPDSFQDYIKSYLE
  binding: no binding

Source: paper PMC7037427
